# Results: patent US20260055097A9, “NRF2 PROTEIN DEGRADERS” (Ganymede Oncology, Inc., priority 2022, published 2026)
# By UniProt entry, the sequences of proteins in these tests, tags left out.
# UniProt Q16236, whole entry: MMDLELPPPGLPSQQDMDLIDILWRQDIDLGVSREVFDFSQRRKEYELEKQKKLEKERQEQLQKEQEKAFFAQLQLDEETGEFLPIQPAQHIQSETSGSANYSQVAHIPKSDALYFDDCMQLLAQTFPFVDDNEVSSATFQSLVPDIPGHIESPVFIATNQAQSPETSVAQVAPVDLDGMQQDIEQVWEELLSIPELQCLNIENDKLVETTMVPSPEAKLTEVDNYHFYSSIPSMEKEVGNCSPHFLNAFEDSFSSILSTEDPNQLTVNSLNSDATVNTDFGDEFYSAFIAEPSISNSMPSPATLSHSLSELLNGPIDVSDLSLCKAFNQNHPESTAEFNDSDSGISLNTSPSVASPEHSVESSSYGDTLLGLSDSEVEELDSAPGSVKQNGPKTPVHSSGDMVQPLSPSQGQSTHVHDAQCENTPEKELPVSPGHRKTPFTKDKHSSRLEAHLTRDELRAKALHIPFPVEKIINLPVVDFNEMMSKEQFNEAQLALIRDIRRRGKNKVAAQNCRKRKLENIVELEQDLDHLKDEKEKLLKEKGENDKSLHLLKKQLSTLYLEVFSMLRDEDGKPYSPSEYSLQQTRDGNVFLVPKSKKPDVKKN
# Like-named read-outs stand apart in the source and are kept apart here. The match of structure and compound is tentative.
# Tests used:
# LK-2 = experiment: Cancer cell viability, LK-2 (CellTiter-Glo); conditions: read-out: Cellular IC50 (μM) LK-2, LK-2 cells, 3 days
# Nrf2 = Nrf2 (Homo sapiens, UniProt Q16236); experiment: Nrf2 degradation in A549 HiBiT-Nrf2 cells, Nano-Glo HiBiT lytic detection (HiBiT readout)
# A549 = experiment: Cancer cell viability, A549 (CellTiter-Glo); conditions: read-out: Cellular IC50 (μM) A549, A549 cells, 3 days
smiles,measurement,setting,value
Cc1ccccc1C(=O)N1CCc2cc(-c3nc(NC(=O)Cc4cccc(OCCN5CCN(c6ccc7c(c6)C(=O)N(C6CCC(=O)NC6=O)C7=O)CC5)c4)sc3C)ccc21 (stereo not shown),IC50,LK-2,> 30 µM
same,DC50,"Nrf2; read-out: DC50 (nM) at 6 h, 6 h",> 3000 nM
same,DC50,"Nrf2; read-out: DC50 (nM) at 20 h, 20 h",> 3000 nM
same,IC50,A549,> 30 µM
